Assays:
[1] = test system: stDNA (DNA sodium salt from salmon testes, approximately 20 kbp); assay: MIL-based single droplet extraction (SDE) of stDNA; details: 20 μL MIL, 2 mL, pH 8, n = 3
[2] = test system: stDNA (DNA sodium salt from salmon testes, approximately 20 kbp); assay: MIL-based dispersive droplet extraction (DDE) of stDNA; details: for % extraction efficiency of 20 kbp stDNA (n = 3): 4.17 nM, 2 mL
20 bp dsDNA = assay: MIL-based DDE of synthetic duplex DNA; details: 1224 nM, 2 mL, pH 8, 20 μL MIL, manual agitation 30 s
33-mer ssDNA = assay: MIL-based DDE of single-stranded oligonucleotide; details: 1499 nM, 2 mL, pH 8, 20 μL MIL, manual agitation 30 s
[3] = listed as [(C8)3BnN+][FeCl3Br−]
[4] = listed as [(C8)3BnN+][FeCl3Br−] (14)

**Q.** Which “% extraction efficiency” value ([1]; 10 min) does the source give for `CCCCCCCCCCCCCCCCn1c[n+](CCCCCCCCCCCC[n+]2cn(CCCCCCCCCCCCCCCC)c3ccccc32)c2ccccc21.O=S(=O)([N-]S(=O)(=O)C(F)(F)F)C(F)(F)F.[Cl][Fe-]([Cl])([Cl])[Br]` [MIL 6] here?
**A.** 5.5%

**Q.** And the “% extraction efficiency” value ([1]; 20 min)?
**A.** 33.3%

**Q.** What about the “% extraction efficiency” value ([1]; 30 min) of the same compound?
**A.** 40.5%

**Q.** And the “% extraction efficiency” value ([1]; 60 min)?
**A.** 60.3%

**Q.** What about the “% extraction efficiency” value ([1]; 90 min) of the same compound?
**A.** 61.6%

**Q.** What about the “% extraction efficiency” value ([1]; 120 min) of the same compound?
**A.** 63.1%

**Q.** What about the “% extraction efficiency of 20 kbp stDNA (n = 3)” value ([2]; pH 8, 20 μL MIL, manual agitation 30 s) of the same compound?
**A.** 76.8 ± 2.6%

**Q.** What about the “% extraction efficiency” value ([2]; DDE, manual agitation 30 s, applied magnetic field 5 s, 20 μL MIL, pH 8, n = 3, listed as [(C16BnIM)2C12^2+][NTf2−, FeCl3Br−]) of the same compound?
**A.** greater than 76%

**Q.** And the “% extraction efficiency” value ([2]; DDE, manual agitation 30 s, applied magnetic field 5 s; 20 μL MIL; pH 8; n = 3; listed as [C16BnIM)2C12^2+][NTf2−, FeCl3Br−])?
**A.** 76.8%

**Q.** What about the “% extraction efficiency” value ([2]; DDE, manual agitation 30 s, applied magnetic field 30 s, 20 μL MIL, pH 8, n = 3) of the same compound?
**A.** 75.6%

**Q.** And the “% extraction efficiency” value ([2]; DDE, manual agitation 30 s, applied magnetic field 60 s, 20 μL MIL, pH 8, n = 3)?
**A.** 79.3%

**Q.** And the “% extraction efficiency” value ([2]; DDE, manual agitation 30 s, applied magnetic field 120 s, 20 μL MIL, pH 8, n = 3)?
**A.** 76.5%

**Q.** And the “% extraction efficiency” value ([2]; DDE, manual agitation 30 s, applied magnetic field 300 s, 20 μL MIL, pH 8, n = 3)?
**A.** 77.0%

**Q.** And the “% extraction efficiency of 20 bp dsDNA (n = 3)” value (20 bp dsDNA)?
**A.** 64.0 ± 1.1%

**Q.** What about the “% extraction efficiency of 33-mer ssDNA (n = 3)” value (33-mer ssDNA) of the same compound?
**A.** 67.7 ± 3.0%

**Q.** With `CCCCCCCCCCCCCC[P+](CCCCCC)(CCCCCC)CCCCCC.[Cl][Fe-]([Cl])([Cl])[Cl]` [[P6,6,6,14+][FeCl4−], trihexyl(tetradecyl)phosphonium tetrachloroferrate(III), reference compound] as the compound, how does the “decrease of extraction efficiency of stDNA in the presence of albumin” value ([2]; albumin 3.4 μM, pH 8 (FIG. 8 vs FIG. 10B)) read?
**A.** 46%

**Q.** Which results are given for “benzyltrioctylammonium bromotrichloroferrate(III) [MIL 1]”?
**A.** % extraction efficiency of 20 kbp stDNA (n = 3) ([2]; pH 8, 20 μL MIL, manual agitation 30 s, listed as [(C8)3BnN+][FeCl3Br−]): 41.0%; % extraction efficiency of 20 kbp stDNA (n = 3) ([2]; pH 8, 20 μL MIL, manual agitation 30 s, listed as [(C8)3BnN+][FeCl3Br−] (14)): 41.0 ± 0.9%; % extraction efficiency of 20 bp dsDNA (n = 3) (20 bp dsDNA; [3]): 69.3%; % extraction efficiency of 20 bp dsDNA (n = 3) (20 bp dsDNA; [4]): 69.3 ± 4.4%; % extraction efficiency of 33-mer ssDNA (n = 3) (33-mer ssDNA; [3]): 57.6%; % extraction efficiency of 33-mer ssDNA (n = 3) (33-mer ssDNA; [4]): 57.6 ± 5.0%
